Experimental data: patent publication US20210123036A1
These are yes or no findings as the source states them, for the method shown. In cells and extracts the contact can be indirect. Some entries that bind do so weakly or less than the wild type.

Chains of the proteins cited; added tags and fusions are not shown. Lines headed by an entry give the natural chain unless they say otherwise; changes in a name come on top.
UniProt P02453: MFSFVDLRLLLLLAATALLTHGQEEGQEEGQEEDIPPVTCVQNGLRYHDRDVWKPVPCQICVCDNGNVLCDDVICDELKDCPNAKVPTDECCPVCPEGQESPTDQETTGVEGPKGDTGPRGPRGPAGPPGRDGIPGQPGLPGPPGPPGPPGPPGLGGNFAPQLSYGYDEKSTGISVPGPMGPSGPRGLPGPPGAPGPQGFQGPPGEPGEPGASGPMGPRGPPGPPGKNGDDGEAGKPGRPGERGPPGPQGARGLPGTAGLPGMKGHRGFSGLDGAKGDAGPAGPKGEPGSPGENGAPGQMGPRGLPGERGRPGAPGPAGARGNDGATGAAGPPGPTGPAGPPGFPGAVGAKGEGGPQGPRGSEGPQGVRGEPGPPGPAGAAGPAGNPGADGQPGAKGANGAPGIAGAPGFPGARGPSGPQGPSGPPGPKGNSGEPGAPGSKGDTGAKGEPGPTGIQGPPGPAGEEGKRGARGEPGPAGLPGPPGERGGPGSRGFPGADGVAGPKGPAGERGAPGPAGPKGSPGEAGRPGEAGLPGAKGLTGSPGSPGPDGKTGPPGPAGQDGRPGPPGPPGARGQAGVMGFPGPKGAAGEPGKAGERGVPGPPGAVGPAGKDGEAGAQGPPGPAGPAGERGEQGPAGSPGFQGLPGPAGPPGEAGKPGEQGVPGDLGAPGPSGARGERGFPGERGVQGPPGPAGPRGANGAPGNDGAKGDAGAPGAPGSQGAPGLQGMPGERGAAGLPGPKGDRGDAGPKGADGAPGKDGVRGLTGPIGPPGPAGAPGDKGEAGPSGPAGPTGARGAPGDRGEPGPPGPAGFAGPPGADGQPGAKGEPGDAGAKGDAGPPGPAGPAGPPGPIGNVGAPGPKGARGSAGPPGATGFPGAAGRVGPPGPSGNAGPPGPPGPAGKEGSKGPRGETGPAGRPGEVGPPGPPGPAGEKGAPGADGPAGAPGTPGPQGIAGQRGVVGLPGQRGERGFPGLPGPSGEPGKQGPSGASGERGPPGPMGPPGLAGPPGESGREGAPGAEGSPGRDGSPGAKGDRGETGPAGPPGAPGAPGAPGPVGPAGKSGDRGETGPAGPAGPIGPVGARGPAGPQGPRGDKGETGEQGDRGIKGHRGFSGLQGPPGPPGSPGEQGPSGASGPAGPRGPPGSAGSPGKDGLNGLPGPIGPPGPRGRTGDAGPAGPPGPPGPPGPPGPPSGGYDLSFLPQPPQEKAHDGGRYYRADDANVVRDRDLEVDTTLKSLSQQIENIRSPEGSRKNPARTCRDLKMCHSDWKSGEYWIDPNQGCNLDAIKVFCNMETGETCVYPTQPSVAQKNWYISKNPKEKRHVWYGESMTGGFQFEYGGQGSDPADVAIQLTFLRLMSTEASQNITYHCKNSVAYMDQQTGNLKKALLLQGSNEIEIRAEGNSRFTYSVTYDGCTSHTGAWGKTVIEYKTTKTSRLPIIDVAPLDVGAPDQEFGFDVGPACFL
UniProt P02465: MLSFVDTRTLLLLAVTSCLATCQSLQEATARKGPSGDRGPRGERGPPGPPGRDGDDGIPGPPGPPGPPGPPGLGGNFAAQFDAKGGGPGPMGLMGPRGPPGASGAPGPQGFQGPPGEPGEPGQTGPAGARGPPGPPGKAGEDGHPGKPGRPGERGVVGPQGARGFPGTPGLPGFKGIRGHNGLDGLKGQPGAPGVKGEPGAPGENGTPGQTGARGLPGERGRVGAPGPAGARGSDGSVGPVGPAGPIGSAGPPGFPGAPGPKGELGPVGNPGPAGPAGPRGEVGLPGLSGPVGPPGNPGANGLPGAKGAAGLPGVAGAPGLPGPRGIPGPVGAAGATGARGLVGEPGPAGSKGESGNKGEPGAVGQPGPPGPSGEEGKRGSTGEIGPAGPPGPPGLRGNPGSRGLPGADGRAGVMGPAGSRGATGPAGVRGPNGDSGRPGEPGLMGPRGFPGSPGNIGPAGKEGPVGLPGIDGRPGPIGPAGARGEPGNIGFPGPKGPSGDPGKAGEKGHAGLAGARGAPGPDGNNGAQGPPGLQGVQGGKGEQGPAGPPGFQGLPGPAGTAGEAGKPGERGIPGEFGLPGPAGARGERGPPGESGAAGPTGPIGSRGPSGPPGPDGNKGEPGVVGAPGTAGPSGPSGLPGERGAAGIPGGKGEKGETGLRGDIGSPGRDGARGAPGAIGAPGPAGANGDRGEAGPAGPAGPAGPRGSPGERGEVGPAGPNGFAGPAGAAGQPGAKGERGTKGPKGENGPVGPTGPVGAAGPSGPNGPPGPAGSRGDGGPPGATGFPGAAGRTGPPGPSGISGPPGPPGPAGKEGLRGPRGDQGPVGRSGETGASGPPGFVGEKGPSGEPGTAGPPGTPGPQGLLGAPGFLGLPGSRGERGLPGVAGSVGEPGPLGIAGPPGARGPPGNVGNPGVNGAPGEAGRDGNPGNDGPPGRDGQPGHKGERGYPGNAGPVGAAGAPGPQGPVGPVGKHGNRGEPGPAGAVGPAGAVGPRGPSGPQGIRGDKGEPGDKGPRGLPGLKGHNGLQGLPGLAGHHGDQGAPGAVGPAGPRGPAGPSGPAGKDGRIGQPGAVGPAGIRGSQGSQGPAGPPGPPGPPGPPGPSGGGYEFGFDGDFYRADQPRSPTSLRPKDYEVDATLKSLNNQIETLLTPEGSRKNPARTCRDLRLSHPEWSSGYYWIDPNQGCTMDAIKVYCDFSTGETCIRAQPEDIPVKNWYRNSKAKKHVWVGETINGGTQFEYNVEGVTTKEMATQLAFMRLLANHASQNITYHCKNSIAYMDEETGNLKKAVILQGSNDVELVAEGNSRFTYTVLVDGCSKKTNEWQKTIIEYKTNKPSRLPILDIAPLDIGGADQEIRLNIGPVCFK
UniProt P08253: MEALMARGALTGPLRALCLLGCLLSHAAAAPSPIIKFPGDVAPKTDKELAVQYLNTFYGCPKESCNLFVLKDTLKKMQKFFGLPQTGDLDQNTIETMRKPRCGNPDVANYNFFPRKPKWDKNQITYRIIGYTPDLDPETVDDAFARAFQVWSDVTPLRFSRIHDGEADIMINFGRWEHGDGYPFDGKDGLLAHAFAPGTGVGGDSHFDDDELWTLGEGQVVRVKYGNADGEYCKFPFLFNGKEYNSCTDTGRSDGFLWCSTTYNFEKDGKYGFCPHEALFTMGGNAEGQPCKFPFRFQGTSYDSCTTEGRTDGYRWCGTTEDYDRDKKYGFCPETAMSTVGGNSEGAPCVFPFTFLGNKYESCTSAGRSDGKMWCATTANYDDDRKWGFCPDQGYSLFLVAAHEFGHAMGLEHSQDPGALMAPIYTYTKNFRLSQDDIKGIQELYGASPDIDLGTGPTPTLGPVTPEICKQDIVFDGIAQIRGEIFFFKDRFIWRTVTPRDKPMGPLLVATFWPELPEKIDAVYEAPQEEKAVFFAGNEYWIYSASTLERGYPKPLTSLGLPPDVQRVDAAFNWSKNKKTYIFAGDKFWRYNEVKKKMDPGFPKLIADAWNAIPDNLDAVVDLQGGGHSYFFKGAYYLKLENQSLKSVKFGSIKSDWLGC

These substances were tested against Gelatin sepharose (bovine skin Type I collagen gelatin) (bovine) (UniProt P02453+P02465) (assay: gelatin sepharose pull-down, SDS-PAGE).

binding, binds:
collagen binding domain (CBD) of gelatinase A (MMP-2) (from UniProt P08253 228-392)
module 2 of the CBD of MMP-2 (from UniProt P08253 286-334)
module 3 of the CBD of MMP-2 (from UniProt P08253 344-392)
